{"sequences": {"note": "The chains behind the UniProt entries cited, without tags or fusion partners. Where a name states a change or a piece, a line headed by the entry shows the natural chain unless it says otherwise.", "UniProt P36397": "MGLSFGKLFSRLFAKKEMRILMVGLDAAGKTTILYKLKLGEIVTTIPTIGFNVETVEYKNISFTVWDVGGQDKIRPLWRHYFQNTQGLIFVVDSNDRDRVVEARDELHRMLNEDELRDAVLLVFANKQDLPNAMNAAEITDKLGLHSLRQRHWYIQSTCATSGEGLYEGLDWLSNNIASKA", "UniProt Q42510": "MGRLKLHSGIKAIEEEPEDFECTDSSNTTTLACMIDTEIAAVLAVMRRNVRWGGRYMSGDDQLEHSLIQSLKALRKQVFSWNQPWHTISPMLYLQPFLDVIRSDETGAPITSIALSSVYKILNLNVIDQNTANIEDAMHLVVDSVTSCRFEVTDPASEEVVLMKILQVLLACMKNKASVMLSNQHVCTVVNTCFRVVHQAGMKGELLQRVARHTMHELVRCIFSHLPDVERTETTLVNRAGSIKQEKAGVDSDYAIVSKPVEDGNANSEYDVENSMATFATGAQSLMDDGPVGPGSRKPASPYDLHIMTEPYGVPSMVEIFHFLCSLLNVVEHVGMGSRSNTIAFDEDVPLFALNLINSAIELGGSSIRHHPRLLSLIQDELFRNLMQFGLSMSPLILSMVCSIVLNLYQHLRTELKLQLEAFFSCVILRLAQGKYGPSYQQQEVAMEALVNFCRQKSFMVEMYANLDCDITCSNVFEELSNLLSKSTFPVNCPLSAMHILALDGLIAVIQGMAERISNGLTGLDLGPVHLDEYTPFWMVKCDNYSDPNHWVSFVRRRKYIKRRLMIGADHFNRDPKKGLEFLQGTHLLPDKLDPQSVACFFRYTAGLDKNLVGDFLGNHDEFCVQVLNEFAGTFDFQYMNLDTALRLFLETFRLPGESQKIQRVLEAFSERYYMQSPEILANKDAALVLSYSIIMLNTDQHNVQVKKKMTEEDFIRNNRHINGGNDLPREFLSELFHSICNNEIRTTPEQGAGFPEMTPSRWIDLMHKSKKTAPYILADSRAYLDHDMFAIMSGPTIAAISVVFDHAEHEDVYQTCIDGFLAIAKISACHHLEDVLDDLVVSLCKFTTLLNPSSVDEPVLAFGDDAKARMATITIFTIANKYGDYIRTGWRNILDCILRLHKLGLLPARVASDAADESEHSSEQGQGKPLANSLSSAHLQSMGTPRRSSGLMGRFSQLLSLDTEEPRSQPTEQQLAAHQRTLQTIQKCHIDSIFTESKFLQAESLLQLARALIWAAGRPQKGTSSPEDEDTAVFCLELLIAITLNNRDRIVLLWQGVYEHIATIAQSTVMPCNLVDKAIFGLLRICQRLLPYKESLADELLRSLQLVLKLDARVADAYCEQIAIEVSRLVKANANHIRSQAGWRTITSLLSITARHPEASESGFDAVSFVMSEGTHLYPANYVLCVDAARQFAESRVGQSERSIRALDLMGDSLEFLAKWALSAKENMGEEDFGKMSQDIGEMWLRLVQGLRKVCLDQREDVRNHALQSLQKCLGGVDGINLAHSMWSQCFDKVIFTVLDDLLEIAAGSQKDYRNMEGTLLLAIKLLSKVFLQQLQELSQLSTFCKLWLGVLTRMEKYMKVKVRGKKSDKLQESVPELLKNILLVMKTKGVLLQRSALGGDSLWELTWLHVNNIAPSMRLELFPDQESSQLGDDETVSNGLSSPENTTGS"}, "source": "paper doi:10.1101/2020.01.21.913905", "key": {"[1]": {"biological_target": "ARF1-T31N-YFP (Arabidopsis thaliana) (UniProt P36397)", "test": "co-IP"}, "[2]": {"biological_target": "ARF1-Q71L-YFP (Arabidopsis thaliana) (UniProt P36397)", "test": "co-IP"}, "[3]": {"biological_target": "GNOM-GFP (Arabidopsis thaliana) (UniProt Q42510)", "test": "co-IP"}, "[4]": {"biological_target": "GNOM-ΔDCB (aa 232-1451) (Arabidopsis thaliana) (UniProt Q42510)", "test": "two-hybrid"}, "[5]": {"biological_target": "GNOM-ΔDCB(J(3A)) (Arabidopsis thaliana) (UniProt Q42510)", "test": "two-hybrid"}, "[6]": {"biological_target": "GNOM-ΔDCB(B4049) (aa 232-1451; G579R) (Arabidopsis thaliana) (UniProt Q42510)", "test": "two-hybrid"}, "[7]": {"biological_target": "GN-loop>J(3A)-Myc (Arabidopsis thaliana) (UniProt Q42510)", "test": "co-IP"}, "[8]": {"biological_target": "GNOM-Myc (Arabidopsis thaliana) (UniProt Q42510)", "test": "co-IP"}}, "note": "These are yes or no findings as the source states them, for the method shown. For some assays here: Binding calls can cover weak binding; strength is not graded here. For some assays here: In cells and extracts the contact can be indirect."}
{"substance": "ARF-GEF GNOM (endogenous) (from UniProt Q42510)", "values": [{"measurement": "binding", "setting": "[1]", "value": "binds"}, {"measurement": "binding", "setting": "[2]", "value": "no binding"}]}
{"substance": "GN-loop>J(3A)-Myc (from UniProt Q42510)", "values": [{"measurement": "binding", "setting": "[1]", "value": "binds"}, {"measurement": "binding", "setting": "[3]", "value": "binds"}]}
{"substance": "GNOM-DCB (aa 1-246) (from UniProt Q42510) (domain or fragment)", "values": [{"measurement": "binding", "setting": "[4]", "value": "binds"}, {"measurement": "binding", "setting": "[5]", "value": "binds"}, {"measurement": "binding", "setting": "[6]", "value": "no binding"}]}
{"substance": "GNOM-GFP (from UniProt Q42510)", "values": [{"measurement": "binding", "setting": "[7]", "value": "binds"}]}
{"substance": "endogenous ARF1 (from UniProt P36397 1-181)", "values": [{"measurement": "binding", "setting": "[7]", "value": "no binding"}, {"measurement": "binding", "setting": "[8]", "value": "binds"}, {"measurement": "binding", "setting": "[3]", "value": "binds"}]}
